Measurements as given in patent US20220089602A1, “COMPOUNDS THAT INDUCE FERROPTIC CELL DEATH” (The Board of Trustees of the University of Illinois, priority 2019, published 2022).
At least one structure is not confirmed: it was looked up by name or label, or the drawing left a doubt.

Tested on: 4T1 cells
Assay: Protection studies against ferroptocide-induced cell death, AV/PI
Type: cell-based, murine
Conditions: pre-treatment with protecting agent
Experimental: ES-2, HCT 116, Mia PaCa-2, A549, and 4T1 cells (1×10^5 cells/mL) were plated overnight in 12 well plates, prior to addition of compounds. For protection studies, samples were pre-treated with each protecting agent such as 25 μM Q-VD-OPh, 250 μM trolox, 2 μM ferrostatin-1, 5 mM NAC-1 (neutralized pH), or 100 μM deferoxamine (DFO) for two hours or 1 hr (NAC-1) before compound addition. Cells were incubated for the appropriate times and harvested for flow cytometry analysis. Cell pellets were resuspended in binding buffer (10 mM HEPES, pH 7.4, 140 mM NaCl, 2.5 mM CaCl2) containing 2 μg/mL propidium iodide and 5 μL/mL Annexin V-FITC conjugate antibody and analyzed for cell viability after gating for forward and side scattering. Ten thousand events were collected per sample in BD LSR II Flow Cytometer (BD Bioscience) and FCS express V6, De Novo software was used to perform experimental analysis.

Structure (SMILES): CC(=O)N(O)CCCCCNC(=O)CCC(=O)N(O)CCCCCNC(=O)CCC(=O)N(O)CCCCCN [DFO, deferoxamine]
- protection against ferroptocide-induced cell death: significantly protected against ferroptocide-induced cell death
